Laboratory results published in PubChem BioAssay (NCATS).
Values joined by “and” are separate entries in the source; they are usually repeats but may differ in a detail not shown here. Equal values may be shown once. The list shows a part of the results. These are further read-outs of the screen, such as a control signal, another cell line or another target. No call is given for them. Most of these compounds were active or inconclusive in the main read-out, so they are no random draw. Potencies come from curve fits of mixed quality, noted in brackets.

Test: qHTS assay for small molecule antagonists of peroxisome proliferator-activated receptor gamma signaling (AID 588537)
Conditions: HEK293 PPARg-UAS-bla, beta-lactamase ratio, antagonist mode; measured here: W460 blue channel
Outline: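 Compounds are tested as concentration series for inhibition of rosiglitazone-driven (50 nM) reporter expression in GeneBLAzer PPAR-gamma-UAS-bla HEK293 cells. After 16 h at 37 C, CCF4 substrate is added for 2 h at room temperature and blue/green fluorescence is measured.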

| SMILES | AC50 |
| --- | --- |
| C=C(Cl)CCl | 44.7 µM [rising, single point] |
| CC(C)(c1ccc(O)cc1)c1ccc(O)cc1 | 31.6 µM [falling, partial curve] |
| O=P(OCCCl)(OCCCl)OCCCl | 50.1 µM [rising, single point] |
| Oc1c(Cl)cccc1Cl | 70.8 µM [rising, single point] |
| CCC(=O)Nc1ccc(Cl)c(Cl)c1 | 0.0708 µM [falling, full curve, poor fit] |
| CS(=O)(=O)NC(=O)c1cc(Oc2ccc(C(F)(F)F)cc2Cl)ccc1[N+](=O)[O-] | 0.631 µM [falling, full curve, poor fit] |
| C[C@]12CCC(=O)C[C@@H]1CC[C@@H]1[C@@H]2CC[C@]2(C)[C@@H](O)CC[C@@H]12 | 50.1 µM [rising, single point] |
| ClC(Cl)=C(Cl)C(Cl)=C(Cl)Cl | 50.1 µM [rising, single point] and 35.5 nM [falling, full curve, poor fit] |
| CC(=O)NNc1ccccc1 | 0.631 µM [falling, full curve] |
| [O-][Cl+2]([O-])O | 44.7 µM [rising, single point] |
| C=C(C)CCl | 50.1 µM [rising, single point] |
| Nc1ncc([N+](=O)[O-])s1 | 70.8 µM [rising, single point] |
| COC(=O)/C=C(\C)OP(=O)(OC)OC | 8.91 µM [falling, partial curve] |
| COc1ccc(C)cc1N | 50.1 µM [rising, single point] |
| C[N+](C)(C)Cc1ccccc1 | 50.1 µM [rising, single point] |
| C=CC(=O)OCCN(C)C | 50.1 µM [rising, single point] |
| c1ccc2c(c1)CCCC2 | 50.1 µM [rising, single point] |
| c1ccc2occc2c1 | 1260 µM [falling, partial curve, poor fit] |
| CC(C)OS(C)(=O)=O | 31.6 µM [rising, single point] |
| COc1ccc(O)c(C(C)(C)C)c1 | 0.0316 µM [falling, full curve, poor fit] |

| SMILES | AC50 |
| --- | --- |
| O=C(NC(=O)c1c(F)cccc1F)Nc1ccc(OC(F)(F)C(F)OC(F)(F)F)c(Cl)c1 (centres undefined) | 0.0398 µM [falling, full curve, poor fit] |
| COP(=O)(OC)Oc1ccc([N+](=O)[O-])cc1 | 31.6 µM [falling, partial curve, poor fit] |
| O=S(=O)(Cl)c1ccccc1 | 50.1 µM [rising, single point] |
| O=C(Cc1ccccc1)OCc1ccccc1 | 70.8 µM [rising, single point] |
| O=C(O[C@@H]1Cc2c(O)cc(O)cc2O[C@@H]1c1cc(O)c(O)c(O)c1)c1cc(O)c(O)c(O)c1 | 0.00126 µM [falling, full curve, poor fit] |
| CCOP(=S)(OCC)Oc1cc(C)nc(C(C)C)n1 | 50.1 µM [falling, single point] |
| CC(C)CON=O | 50.1 µM [rising, single point] |
| O=NN1CCCCC1 | 63.1 µM [rising, single point] |
| N#CCCC#N | 70.8 µM [rising, single point] |
| CC(CCl)OC(C)CCl (centres undefined) | 8.91 µM [falling, partial curve, poor fit] |
| O=C(O)CC(O)(CC(=O)O)C(=O)O | 0.0282 µM [falling, full curve, poor fit] |
| CC(Cl)Cl | 70.8 µM [rising, single point] |
| S=C=S | 70.8 µM [rising, single point] |
| C=CCc1ccc2c(c1)OCO2 | 70.8 µM [rising, single point] |
| O=C(O)C(Cl)Br (centres undefined) | 50.1 µM [rising, single point] |
| CNC(=O)O/N=C/C(C)(C)S(C)(=O)=O | 0.891 µM [falling, full curve, poor fit] |
| FC(F)(F)c1ccc(OCCCOc2c(Cl)cc(OCC=C(Cl)Cl)cc2Cl)nc1 | 0.00355 µM [falling, full curve, poor fit] |
| c1cc2ccc3cccc4ccc(c1)c2c34 | 50.1 µM [rising, single point] |
| COc1ccc(C=O)cc1 | 44.7 µM [rising, single point] |

Quoted from the listing:
AC50, O=S(=O)(Cl)c1ccccc1 reads 50.1 µM [rising, single point]
AC50, CNC(=O)O/N=C/C(C)(C)S(C)(=O)=O reads 0.891 µM [falling, full curve, poor fit]
